Test results published in paper doi:10.1101/2021.12.20.473529 (bioRxiv, 2021).
Results are given in words; binding and its absence hold for the method and conditions named. Blank lines part the entries; values can stand above or below the substance they belong to.

Amino acid sequences for entries named in this document (tags omitted). A change or cut given only in a name is not applied to a line headed by its entry. Chains listed by the source or under a name are the forms on record and can include a tag or linker. Residues count along the entry.
HNF-1A DBD (HNF-1A 83-279), wild type (P20823, residues 83-279): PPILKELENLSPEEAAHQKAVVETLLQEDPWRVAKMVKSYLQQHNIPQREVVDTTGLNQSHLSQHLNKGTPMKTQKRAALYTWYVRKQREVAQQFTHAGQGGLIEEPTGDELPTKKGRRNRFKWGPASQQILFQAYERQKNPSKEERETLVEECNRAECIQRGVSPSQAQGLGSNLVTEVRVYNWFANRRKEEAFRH
HNF-1A DBD/N266S (P20823, form named): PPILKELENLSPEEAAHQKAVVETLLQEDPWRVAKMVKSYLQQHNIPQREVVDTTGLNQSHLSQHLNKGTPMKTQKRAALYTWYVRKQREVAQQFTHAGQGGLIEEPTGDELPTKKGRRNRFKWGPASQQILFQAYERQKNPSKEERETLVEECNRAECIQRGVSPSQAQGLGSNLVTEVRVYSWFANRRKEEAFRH
HNF-1A DBD/R263C (P20823, form named): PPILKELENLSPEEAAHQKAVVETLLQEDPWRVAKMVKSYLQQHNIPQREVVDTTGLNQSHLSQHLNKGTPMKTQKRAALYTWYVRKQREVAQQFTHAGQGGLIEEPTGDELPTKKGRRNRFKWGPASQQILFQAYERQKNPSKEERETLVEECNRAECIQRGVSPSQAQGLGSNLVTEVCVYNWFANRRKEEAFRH

Experiments:
Experiment in all cases: SEC-MALS
[1] = target: HNF-1A DBD/N266S (human) (UniProt P20823)
[2] = target: HNF-1A DBD (HNF-1A 83-279), wild type (human) (UniProt P20823)
[3] = target: HNF-1A DBD/R263C (human) (UniProt P20823)

binding [1]: no binding (tested: 100 μg sample)
Substance: HNF-1A DBD/N266S (from UniProt P20823 83-279) (domain or fragment)

binding [2]: no binding (tested: 100 μg sample)
Substance: HNF-1A DBD (HNF-1A 83-279), wild type (from UniProt P20823 83-279) (domain or fragment)

binding [3]: no binding (tested: 100 μg sample)
Substance: HNF-1A DBD/R263C (from UniProt P20823 83-279) (domain or fragment)
